From patent publication US8025878
Positions count from the first letter of the chain named. Results are given in words; binding and its absence hold for the method and conditions named. Some results given as binding are weak or reduced against the parent protein; the word gives no strength.

Protein sequences, listed by entry. Tags and fused reporters are not part of them. Residues count along the entry.
UniProt P05067, residues 672-711: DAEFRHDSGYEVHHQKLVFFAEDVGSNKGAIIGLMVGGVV

B1: chimeric 158 antibody (158 VH x 158 VK) (antibody, V domains shown)
VH: DVQLVESGGGLVQPGGSRKLSCAASGFTFSSFGMHWVRQAPEKGLEWVAYISSGSSTIYYGDTVKGRFTISRDNPKNTLFLQMTSLRSEDTAMYYCAREGGYYYGRSYYTMDYWGQGTSVTVSS
VL: DVLMTQTPLSLPVSLGDQASISCRSSQSIVHSNGNTYLEWYLQKPGQSPKLLIYKVSNRFSGVPDRFSGSGSGTDFTLKISRVEAEDLGIYYCFQGSHVPPTFGGGTKLEIK
B2: humanized 158 antibody (BAN2401) (antibody, V domains shown)
VH: EVQLVESGGGLVQPGGSLRLSCSASGFTFSSFGMHWVRQAPGKGLEWVAYISSGSSTIYYGDTVKGRFTISRDNAKNSLFLQMSSLRAEDTAVYYCAREGGYYYGRSYYTMDYWGQGTTVTVS
VL: B1 VL with L3V, T7S, S14T, L15P, D17A, Q18P, K79R, L88V, G105P

Tests used:
[1] = molecular target: Aβ monomers (UniProt P05067); assay: direct binding ELISA
[2] = molecular target: Aβ monomers (UniProt P05067); assay: direct ELISA on Aβ monomer and competition ELISA
[3] = molecular target: Aβ monomers (UniProt P05067); assay: competitive ELISA with monomeric and protofibrillar Aβ

Row | binding [1] | binding [2] | binding [3] | Binder
1 | binds | binds | – | B1
2 | – | – | binds | B2
